Assay results as given in patent publication US20210361578A1, “MEK1/2 INHIBITOR-LOADED MICROPARTICLE FORMULATION” (University of Iowa Research Foundation, priority 2020, published 2021).
For at least one compound, name, drawing or mass did not settle the structure.

How the values were obtained:
[1] = Pharmacokinetics and organ levels of PD98059 following IV injection in healthy rats; format: in vivo; settings: IV injection of PD98059 solution, 1 mg
Procedure: 1: Pharmacokinetics of PD98059. Rats were anaesthetized using urethane and a canula was inserted in the femoral vein. A solution of PD98059 dissolved in 10% Tween 80 in sterile 1× DPBS at a concentration of 0.5 mg/ml (total volume 2 ml) was administered slowly by intravenous infusion. After 5, 15, 30, 60, 180, and 360 minutes, blood samples were withdrawn from rats. Major organs (liver, kidney, brain, and heart) were collected from rats after 1 and 3 hours (n=3/time point).
All blood samples were collected into 4 ml BD Vacutainer® blood collection tubes (K2-EDTA, Becton, Dickinson, and Company, Franklin Lakes, N.J.). Plasma samples were collected by centrifugation (3,300×g, 15 min), and frozen at −80° C. until analyzed. Plasma samples were thawed on ice, and a volume of 100 μl of plasma was transferred to a 15 ml tube, and spiked with 15 μl of the internal standard (IS) solution (10 μg/ml of 7-hydroxyfiavone in methanol). Collected organs were rinsed in PBS, then frozen at −80° C. […]
In the case of protocols 1 and 2, the residue in each tube was then dissolved in the mobile phase (described in the HPLC section below), centrifuged (12,000×g, 5 min), and the supernatant was injected in the HPLC and analyzed by the method described below. […] Pharmacokinetic parameters were calculated using PK Solver. […]

[2] = system: plasma levels of norepinephrine; PVN p-ERK1/2; settings: HF rats, ICV infusion for 4 weeks; cited from earlier work

SMILES	elimination half-life in plasma [1]	plasma norepinephrine levels [2]
COc1cccc(-c2cc(=O)c3ccccc3o2)c1N [PD98059]	around 70 min	
Oc1c2ccccc2c2c3c(cccc13)N=N2 [SP600125]		not achieved
